Source: patent publication US20200166512A1 (CENTRE NATIONAL DE LA RECHERCHE SCIENTIFIQUE, published 2020)
Results are given in words; binding and its absence hold for the method and conditions named. Some results given as binding are weak or reduced against the parent protein; the word gives no strength. Where no end group is shown, it is not given here.

Tests used:
[1] = target: T1, mouse IL4I1 protein, recombinant or endogenous (mouse) (UniProt O09046); experiment: single layer ELISA
T1 sequence (looked up): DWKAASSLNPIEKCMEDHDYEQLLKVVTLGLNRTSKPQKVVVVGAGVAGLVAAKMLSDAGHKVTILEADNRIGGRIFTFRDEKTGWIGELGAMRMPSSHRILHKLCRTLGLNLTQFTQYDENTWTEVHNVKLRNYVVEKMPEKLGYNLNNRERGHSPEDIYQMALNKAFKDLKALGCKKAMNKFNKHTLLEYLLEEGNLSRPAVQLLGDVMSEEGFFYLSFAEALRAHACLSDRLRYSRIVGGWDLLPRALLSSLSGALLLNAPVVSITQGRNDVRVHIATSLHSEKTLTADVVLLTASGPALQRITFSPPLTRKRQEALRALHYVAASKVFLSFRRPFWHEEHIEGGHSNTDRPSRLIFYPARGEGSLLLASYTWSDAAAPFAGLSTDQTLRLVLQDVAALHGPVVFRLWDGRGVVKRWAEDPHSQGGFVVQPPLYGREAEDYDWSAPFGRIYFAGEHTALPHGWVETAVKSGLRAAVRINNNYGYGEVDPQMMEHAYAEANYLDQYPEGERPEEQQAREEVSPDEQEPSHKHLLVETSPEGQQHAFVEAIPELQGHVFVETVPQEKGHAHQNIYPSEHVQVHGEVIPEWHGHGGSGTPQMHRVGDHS

[2] = target: T1, mouse IL4I1 protein, recombinant or endogenous (mouse); experiment: flow cytometry, mouse IL4I1
[3] = target: T1, mouse IL4I1 protein, recombinant or endogenous (mouse); experiment: immunohistochemistry, mouse IL4I1
[4] = target: T1, mouse IL4I1 protein, recombinant or endogenous (mouse); experiment: flow cytometry on mouse splenocytes
[5] = target: T1, mouse IL4I1 protein, recombinant or endogenous (mouse); experiment: immunohistochemistry on WT versus IL4I1 KO mouse spleens
[6] = target: T1, mouse IL4I1 protein, recombinant or endogenous (mouse); experiment: ELISA, mouse IL4I1

binding [1]: binds
binding [2]: binds
binding [3]: binds
binding [4]: binds
binding [5]: binds
binding [6]: binds
B1: anti-IL4I1 antibody D-5 IgG/λ (rabbit monoclonal, clone D-5, hybridoma CNCM I-5355) (antibody, V domains shown)
VH: QQQLVESGGDLVKPEGSLTLTCTASGFSLSAGYFICWIRQAPGKGLEWIGSVFSGSSGTTYYASWAKGRFTISKTSSTTVTLQMTSLTAADTAIYFCARGGVLGGRVAYDNSFDHWGPGTLVTVSS
VL: ELVLTQSPSVSAALGASAKLTCTLSSAHSTYTIEWYQQQPGESPRYLMQLKSDGSYTKGTGVPDRFSGSSSGADRYLIIFSVQADDEADYYCGANYSSGYVFGGGTQLTVT
notes: Rabbit IgG/lambda from a hybridoma; It was used as hybridoma supernatant (clone D) or as purified IgG (subclone D-5); also called IgG D-5; AbD-5
